Test system: mSWI/SNF complexes
Assay: mSWI/SNF complex purification with HA-tagged baits and mass spectrometry (peptide counts)
Design: species or system human
Settings: 293_HA-BRD7 bait purification, mass spectrometry; for Total: total peptide count per identified protein; for Unique: unique peptide count per identified protein

| Molecule | Total | Unique |
| --- | --- | --- |
| VPS8 (protein, UniProt Q8N3P4 1-1428, looked up) Vacuolar protein …: MENEPDHENVEQSLCAKTSEEELNKSFNLEASLSKFSYIDMDKELEFKNDLIDDKEFDIPQVDTPPTLESILNETDDEDESFILEDPTLLNIDTIDSHSYDTSSVASSDSGDRTNLKRKKKLPDSFSLHGSVMRHSLLKGISAQIVSAADKVDAGLPTAIAVSSLIAVGTSHGLALIFGKDQNQALRLCLGSTSVGGQYGAISALSINNDCSRLLCGFAKGQITMWDLASGKLLRSITDAHPPGTAILHIKFTDDPTLAICNDSGGSVFELTFKRVMGVRTCESRCLFSGSKGEVCCIEPLHSKPELKDHPITQFSLLAMASLTKILVIGLKPSLKVWMTFPYGRMDPSSVPLLAWHFVAVQNYVNPMLAFCRGDVVHFLLVKRDESGAIHVTKQKHLHLYYDLINFTWINSRTVVLLDSVEKLHVIDRQTQEELETVEISEVQLVYNSSHFKSLATGGNVSQALALVGEKACYQSISSYGGQIFYLGTKSVYVMMLRSWRERVDHLLKQDCLTEALALAWSFHEGKAKAVVGLSGDASKRKAIVADRMVEILFHYADRALKKCPDQGKIQVMEQHFQDMVPVIVDYCLLLQRKDLLFSQMYDKLSENSVAKGVFLECLEPYILSDKLVGITPQVMKDLIVHFQDKKLMENVEALIVHMDITSLDIQQVVLMCWENRLYDAMIYVYNRGMNEFISPMEKLFRVIAPPLNAGKTLTDEQVVMGNKLLVYISCCLAGRAYPLGDIPEDLVPLVKNQVFEFLIRLHSAEASPEEEIYPYIRTLLHFDTREFLNVLALTFEDFKNDKQAVEYQQRIVDILLKVMVENSDFTPSQVGCLFTFLARQLAKPDNTLFVNRTLFDQVLEFLCSPDDDSRHSERQQVLLELLQAGGIVQFEESRLIRMAEKAEFYQICEFMYEREHQYDKIIDCYLRDPLREEEVFNYIHNILSIPGHSAEEKQSVWQKAMDHIEELVSLKPCKAAELVATHFSGHIETVIKKLQNQVLLFKFLRSLLDPREGIHVNQELLQISPCITEQFIELLCQFNPTQVIETLQVLECYRLEETIQITQKYQLHEVTAYLLEKKGDIHGAFLIMLERLQSKLQEVTHQGENTKEDPSLKDVEDTMVETIALCQRNSHNLNQQQREALWFPLLEAMMAPQKLSSSAIPHLHSEALKSLTMQVLNSMAAFIALPSILQRILQDPVYGKGKLGEIQGLILGMLDTFNYEQTLLETTTSLLNQDLHWSLCNLRASVTRGLNPKQDYCSICLQQYKRRQEMADEIIVFSCGHLYHSFCLQNKECTVEFEGQTRWTCYKCSSSNKVGKLSENSSEIKKGRITPSQVKMSPSYHQSKGDPTAKKGTSEPVLDPQQIQAFDQLCRLYRGSSRLALLTELSQNRSSESYRPFSGSQSAPAFNSIFQNENFQLQLIPPPVTED | 1 | 1 |
| SLIT2 (protein, UniProt O94813 31-1529, looked up) Slit homolog 2 protein: QCSCSGSTVDCHGLALRSVPRNIPRNTERLDLNGNNITRITKTDFAGLRHLRVLQLMENKISTIERGAFQDLKELERLRLNRNHLQLFPELLFLGTAKLYRLDLSENQIQAIPRKAFRGAVDIKNLQLDYNQISCIEDGAFRALRDLEVLTLNNNNITRLSVASFNHMPKLRTFRLHSNNLYCDCHLAWLSDWLRQRPRVGLYTQCMGPSHLRGHNVAEVQKREFVCSGHQSFMAPSCSVLHCPAACTCSNNIVDCRGKGLTEIPTNLPETITEIRLEQNTIKVIPPGAFSPYKKLRRIDLSNNQISELAPDAFQGLRSLNSLVLYGNKITELPKSLFEGLFSLQLLLLNANKINCLRVDAFQDLHNLNLLSLYDNKLQTIAKGTFSPLRAIQTMHLAQNPFICDCHLKWLADYLHTNPIETSGARCTSPRRLANKRIGQIKSKKFRCSAKEQYFIPGTEDYRSKLSGDCFADLACPEKCRCEGTTVDCSNQKLNKIPEHIPQYTAELRLNNNEFTVLEATGIFKKLPQLRKINFSNNKITDIEEGAFEGASGVNEILLTSNRLENVQHKMFKGLESLKTLMLRSNRITCVGNDSFIGLSSVRLLSLYDNQITTVAPGAFDTLHSLSTLNLLANPFNCNCYLAWLGEWLRKKRIVTGNPRCQKPYFLKEIPIQDVAIQDFTCDDGNDDNSCSPLSRCPTECTCLDTVVRCSNKGLKVLPKGIPRDVTELYLDGNQFTLVPKELSNYKHLTLIDLSNNRISTLSNQSFSNMTQLLTLILSYNRLRCIPPRTFDGLKSLRLLSLHGNDISVVPEGAFNDLSALSHLAIGANPLYCDCNMQWLSDWVKSEYKEPGIARCAGPGEMADKLLLTTPSKKFTCQGPVDVNILAKCNPCLSNPCKNDGTCNSDPVDFYRCTCPYGFKGQDCDVPIHACISNPCKHGGTCHLKEGEEDGFWCICADGFEGENCEVNVDDCEDNDCENNSTCVDGINNYTCLCPPEYTGELCEEKLDFCAQDLNPCQHDSKCILTPKGFKCDCTPGYVGEHCDIDFDDCQDNKCKNGAHCTDAVNGYTCICPEGYSGLFCEFSPPMVLPRTSPCDNFDCQNGAQCIVRINEPICQCLPGYQGEKCEKLVSVNFINKESYLQIPSAKVRPQTNITLQIATDEDSGILLYKGDKDHIAVELYRGRVRASYDTGSHPASAIYSVETINDGNFHIVELLALDQSLSLSVDGGNPKIITNLSKQSTLNFDSPLYVGGMPGKSNVASLRQAPGQNGTSFHGCIRNLYINSELQDFQKVPMQTGILPGCEPCHKKVCAHGTCQPSSQAGFTCECQEGWMGPLCDQRTNDPCLGNKCVHGTCLPINAFSYSCKCLEGHGGVLCDEEEDLFNPCQAIKCKHGKCRLSGLGQPYCECSSGYTGDSCDREISCRGERIRDYYQKQQGYAACQTTKKVSRLECRGGCAGGQCCGPLRSKRRKYSFECTDGSSFVDEVEKVVKCGCTRCVS | 1 | 1 |
| ##MAP7D3 (protein, UniProt Q8IWC1 1-876, looked up) MAP7 domain-containing …: MMADGAAAGAGGSPSLRELRARMVAAANEIAKERRKQDVVNRVATHSSNIRSTFKPVIDGSMLKNDIKQRLARERREEKRRQQDANKETQLLEKERKTKLQYEKQMEERQRKLKERKEKEEQRRIAAEEKRHQKDEAQKEKFTAILYRTLERRRLADDYQQKRWSWGGSAMANSESKTANKRSASTEKLEQGTSALIRQMPLSSAGLQNSVAKRKTDKERSSSLNRRDSNLHSSTDKEQAERKPRVTGVTNYVMQYVTVPLRKCTSDELRAVMFPMSTMKIPPQTKVEESPLEKVETPPKASVDAPPQVNVEVFCNTSMEASPKAGVGMAPEVSTDSFPVVSVDVSPVVSTYDSEMSMDASPELSIEALPKVDLETVPKVSIVASPEASLEAPPEVSLEALPEVSVEAAPEGSLEAPPKGSAEVAPKESVKGSPKESMEASPEAMVKASPKTSLEASMEASPKAKARDAPKKSEMDKQALIPIAKKRLSSYTECYKWSSSPENACGLPSPISTNRQIQKNCPPSPLPLISKQSPQTSFPYKIMPIQHTLSVQSASSTVKKKKETVSKTTNRCEALSQRHMIYEESGNKSTAGIMNAEAATKILTELRRLAREQREKEEEERQREEMQQRVIKKSKDMAKEAVGGQAEDHLKLKDGQQQNETKKKKGWLDQEDQEAPLQKGDAKIKAQEEADKRKKEHERIMLQNLQERLERKKRIEEIMKRTRKTDVNASKVTETSSHDIYEEAEADNEESDKDSLNEMFPSAILNGTGSPTKFKMPFNNAKKMTHKLVFLEDGTSQVRKEPKTYFNGDLKNFRQKSMKDTSIQEVVSRPSSKRMTSHTTKTRKADETNTTSRSSAQTKSEGFHDILPKSSDTFRQ | 1 | 1 |

Reference: patent US12729225B2, “Non-canonical SWI/SNF complex and uses thereof” (Dana-Farber Cancer Institute, Inc., priority 2018, dated 2026)
